The other results are listed elsewhere or left out.
What follows are targets tested with COc1ccc(Cn2ccc3ccc(C(=O)NO)cc32)cc1 (assay: dose-dependent thermal stabilisation call (2D-TPP, DLPTP, 10% FDR) (binary (1 = stabilised)); higher = stabilised by the compound). Conditions: system: HL-60 intact cells; concentration range 0.04-10 µM.

Sequences of proteins named here, by UniProt entry; tags and fusion partners are left off. A change or cut given only in a name is not applied to a line headed by its entry.
UniProt O75116: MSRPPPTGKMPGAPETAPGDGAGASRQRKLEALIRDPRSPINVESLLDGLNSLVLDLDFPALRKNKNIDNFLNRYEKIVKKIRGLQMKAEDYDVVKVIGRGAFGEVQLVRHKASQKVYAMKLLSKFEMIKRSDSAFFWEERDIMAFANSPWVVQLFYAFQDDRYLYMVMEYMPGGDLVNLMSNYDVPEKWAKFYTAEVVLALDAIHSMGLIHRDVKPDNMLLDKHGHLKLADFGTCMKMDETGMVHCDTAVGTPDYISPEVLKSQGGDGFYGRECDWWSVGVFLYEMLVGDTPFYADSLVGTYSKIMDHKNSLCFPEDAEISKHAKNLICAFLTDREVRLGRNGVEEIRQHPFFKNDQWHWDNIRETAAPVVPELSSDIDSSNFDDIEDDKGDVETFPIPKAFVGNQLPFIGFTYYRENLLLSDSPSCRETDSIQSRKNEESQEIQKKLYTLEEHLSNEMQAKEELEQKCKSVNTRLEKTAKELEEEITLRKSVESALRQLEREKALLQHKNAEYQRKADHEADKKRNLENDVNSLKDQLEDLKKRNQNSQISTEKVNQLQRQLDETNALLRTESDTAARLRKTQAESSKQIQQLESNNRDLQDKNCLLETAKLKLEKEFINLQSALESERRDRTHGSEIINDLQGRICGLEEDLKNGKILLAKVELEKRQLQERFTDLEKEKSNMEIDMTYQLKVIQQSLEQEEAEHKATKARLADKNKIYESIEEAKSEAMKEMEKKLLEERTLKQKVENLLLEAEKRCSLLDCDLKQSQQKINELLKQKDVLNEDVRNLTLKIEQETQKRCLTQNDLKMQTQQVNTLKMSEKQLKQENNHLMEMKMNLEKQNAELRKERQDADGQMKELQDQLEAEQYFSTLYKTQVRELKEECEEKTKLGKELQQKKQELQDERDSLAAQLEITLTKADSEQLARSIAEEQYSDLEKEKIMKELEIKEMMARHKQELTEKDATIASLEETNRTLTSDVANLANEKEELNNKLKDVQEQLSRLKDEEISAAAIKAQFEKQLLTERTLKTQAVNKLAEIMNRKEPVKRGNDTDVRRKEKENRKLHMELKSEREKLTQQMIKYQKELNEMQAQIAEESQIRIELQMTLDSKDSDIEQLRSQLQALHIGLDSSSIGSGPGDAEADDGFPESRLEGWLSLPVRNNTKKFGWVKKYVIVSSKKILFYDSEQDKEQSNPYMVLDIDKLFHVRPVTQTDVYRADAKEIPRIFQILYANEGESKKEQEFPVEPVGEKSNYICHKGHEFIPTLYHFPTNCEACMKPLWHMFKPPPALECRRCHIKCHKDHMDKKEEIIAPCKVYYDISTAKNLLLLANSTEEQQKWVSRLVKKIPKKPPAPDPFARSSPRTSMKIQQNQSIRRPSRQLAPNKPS
UniProt Q9Y508: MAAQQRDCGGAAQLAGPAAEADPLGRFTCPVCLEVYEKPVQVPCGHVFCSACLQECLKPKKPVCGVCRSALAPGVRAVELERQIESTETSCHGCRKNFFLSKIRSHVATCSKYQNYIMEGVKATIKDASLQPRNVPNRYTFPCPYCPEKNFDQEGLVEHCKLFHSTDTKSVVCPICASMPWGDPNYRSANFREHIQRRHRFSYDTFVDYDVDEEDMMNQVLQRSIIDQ
UniProt Q9P258, whole entry: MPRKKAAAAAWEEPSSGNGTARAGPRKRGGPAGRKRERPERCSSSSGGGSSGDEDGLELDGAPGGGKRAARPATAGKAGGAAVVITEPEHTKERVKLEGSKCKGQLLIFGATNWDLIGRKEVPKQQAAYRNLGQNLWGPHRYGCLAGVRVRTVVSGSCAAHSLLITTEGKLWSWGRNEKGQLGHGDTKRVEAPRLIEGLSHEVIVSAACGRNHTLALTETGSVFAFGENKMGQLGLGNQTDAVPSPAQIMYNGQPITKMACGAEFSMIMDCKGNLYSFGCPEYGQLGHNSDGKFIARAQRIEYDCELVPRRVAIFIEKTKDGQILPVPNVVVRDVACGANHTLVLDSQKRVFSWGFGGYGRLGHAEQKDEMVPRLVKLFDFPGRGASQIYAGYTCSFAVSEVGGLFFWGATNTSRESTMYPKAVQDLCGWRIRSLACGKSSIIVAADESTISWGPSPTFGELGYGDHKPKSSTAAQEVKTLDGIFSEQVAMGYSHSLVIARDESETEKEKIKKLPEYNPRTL
UniProt P26447: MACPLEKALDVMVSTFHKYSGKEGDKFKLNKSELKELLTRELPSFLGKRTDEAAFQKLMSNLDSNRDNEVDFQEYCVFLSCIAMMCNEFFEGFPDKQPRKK
UniProt O00442: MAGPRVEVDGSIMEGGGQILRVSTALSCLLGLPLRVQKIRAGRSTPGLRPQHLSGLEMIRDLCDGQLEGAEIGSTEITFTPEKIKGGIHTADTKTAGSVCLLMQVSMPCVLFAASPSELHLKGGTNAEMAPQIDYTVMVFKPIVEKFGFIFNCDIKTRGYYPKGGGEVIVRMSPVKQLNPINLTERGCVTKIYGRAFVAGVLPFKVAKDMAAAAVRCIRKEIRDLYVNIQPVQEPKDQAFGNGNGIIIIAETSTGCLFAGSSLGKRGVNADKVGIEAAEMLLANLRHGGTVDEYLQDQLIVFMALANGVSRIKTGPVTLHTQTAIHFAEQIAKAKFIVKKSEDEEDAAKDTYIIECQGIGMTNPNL
UniProt Q9Y2Q5, whole entry: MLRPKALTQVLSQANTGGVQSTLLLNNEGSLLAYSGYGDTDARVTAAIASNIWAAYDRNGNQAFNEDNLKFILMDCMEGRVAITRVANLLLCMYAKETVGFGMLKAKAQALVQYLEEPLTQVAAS
UniProt Q5VWQ0: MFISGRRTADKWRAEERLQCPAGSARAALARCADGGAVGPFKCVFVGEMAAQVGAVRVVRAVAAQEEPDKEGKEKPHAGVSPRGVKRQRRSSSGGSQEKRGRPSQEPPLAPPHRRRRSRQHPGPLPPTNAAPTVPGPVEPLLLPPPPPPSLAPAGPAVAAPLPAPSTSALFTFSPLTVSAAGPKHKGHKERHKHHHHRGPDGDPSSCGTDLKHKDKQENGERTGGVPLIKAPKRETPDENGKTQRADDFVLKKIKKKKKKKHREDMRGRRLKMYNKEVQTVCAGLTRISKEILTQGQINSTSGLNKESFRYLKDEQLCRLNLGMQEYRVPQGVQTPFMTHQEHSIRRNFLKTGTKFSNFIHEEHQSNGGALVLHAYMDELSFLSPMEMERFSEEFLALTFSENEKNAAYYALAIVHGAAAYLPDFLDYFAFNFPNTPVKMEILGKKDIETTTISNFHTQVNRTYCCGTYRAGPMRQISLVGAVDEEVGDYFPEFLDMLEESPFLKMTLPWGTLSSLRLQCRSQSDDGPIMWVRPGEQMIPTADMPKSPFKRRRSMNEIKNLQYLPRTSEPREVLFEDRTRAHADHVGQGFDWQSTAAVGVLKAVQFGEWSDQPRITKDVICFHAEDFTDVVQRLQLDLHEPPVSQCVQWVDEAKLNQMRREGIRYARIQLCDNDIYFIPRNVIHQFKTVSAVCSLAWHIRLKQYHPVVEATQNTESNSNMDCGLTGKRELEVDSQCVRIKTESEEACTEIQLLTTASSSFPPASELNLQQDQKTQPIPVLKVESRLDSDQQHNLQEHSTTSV
UniProt Q9Y3B9: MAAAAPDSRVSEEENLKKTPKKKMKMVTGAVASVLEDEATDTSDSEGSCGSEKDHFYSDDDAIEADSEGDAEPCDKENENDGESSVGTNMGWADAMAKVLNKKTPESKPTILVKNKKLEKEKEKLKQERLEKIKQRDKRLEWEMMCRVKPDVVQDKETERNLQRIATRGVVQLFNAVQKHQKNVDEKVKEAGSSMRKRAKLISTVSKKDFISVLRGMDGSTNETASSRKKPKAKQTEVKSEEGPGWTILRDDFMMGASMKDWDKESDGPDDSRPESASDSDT
UniProt Q8TDP1: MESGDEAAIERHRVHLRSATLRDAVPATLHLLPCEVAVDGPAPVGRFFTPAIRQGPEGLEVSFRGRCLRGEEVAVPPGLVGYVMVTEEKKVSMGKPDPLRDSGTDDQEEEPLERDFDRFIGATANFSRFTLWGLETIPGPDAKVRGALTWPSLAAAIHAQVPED
UniProt Q9HA92: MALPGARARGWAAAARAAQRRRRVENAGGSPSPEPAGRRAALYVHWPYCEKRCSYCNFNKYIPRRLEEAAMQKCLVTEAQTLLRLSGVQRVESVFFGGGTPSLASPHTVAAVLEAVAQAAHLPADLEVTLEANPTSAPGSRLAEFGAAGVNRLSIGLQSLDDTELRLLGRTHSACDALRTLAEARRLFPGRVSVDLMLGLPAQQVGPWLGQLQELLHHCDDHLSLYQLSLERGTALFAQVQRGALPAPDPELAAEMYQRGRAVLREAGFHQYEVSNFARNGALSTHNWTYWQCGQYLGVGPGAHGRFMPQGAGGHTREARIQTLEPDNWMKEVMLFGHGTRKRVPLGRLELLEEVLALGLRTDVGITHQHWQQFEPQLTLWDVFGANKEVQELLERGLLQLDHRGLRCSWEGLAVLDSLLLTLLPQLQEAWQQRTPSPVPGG
UniProt Q9Y512: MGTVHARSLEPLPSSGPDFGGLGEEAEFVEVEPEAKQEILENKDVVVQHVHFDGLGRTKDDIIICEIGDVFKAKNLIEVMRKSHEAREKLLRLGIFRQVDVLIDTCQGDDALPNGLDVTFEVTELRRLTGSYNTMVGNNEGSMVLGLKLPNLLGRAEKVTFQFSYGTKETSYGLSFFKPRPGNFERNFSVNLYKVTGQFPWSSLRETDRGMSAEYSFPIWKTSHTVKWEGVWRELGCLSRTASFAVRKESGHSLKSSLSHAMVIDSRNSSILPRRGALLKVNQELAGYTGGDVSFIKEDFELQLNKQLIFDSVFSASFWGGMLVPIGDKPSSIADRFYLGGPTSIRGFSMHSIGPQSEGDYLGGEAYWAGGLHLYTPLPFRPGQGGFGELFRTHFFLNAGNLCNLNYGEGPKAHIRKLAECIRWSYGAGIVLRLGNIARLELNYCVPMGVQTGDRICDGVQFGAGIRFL
UniProt O00287: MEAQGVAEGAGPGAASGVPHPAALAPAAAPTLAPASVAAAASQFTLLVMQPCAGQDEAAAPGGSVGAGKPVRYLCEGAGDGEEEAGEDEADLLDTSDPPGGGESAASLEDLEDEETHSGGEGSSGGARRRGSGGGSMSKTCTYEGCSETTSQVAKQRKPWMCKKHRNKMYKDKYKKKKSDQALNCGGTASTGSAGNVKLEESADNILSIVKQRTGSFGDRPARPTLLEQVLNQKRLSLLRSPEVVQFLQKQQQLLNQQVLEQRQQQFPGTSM
UniProt Q6F5E8: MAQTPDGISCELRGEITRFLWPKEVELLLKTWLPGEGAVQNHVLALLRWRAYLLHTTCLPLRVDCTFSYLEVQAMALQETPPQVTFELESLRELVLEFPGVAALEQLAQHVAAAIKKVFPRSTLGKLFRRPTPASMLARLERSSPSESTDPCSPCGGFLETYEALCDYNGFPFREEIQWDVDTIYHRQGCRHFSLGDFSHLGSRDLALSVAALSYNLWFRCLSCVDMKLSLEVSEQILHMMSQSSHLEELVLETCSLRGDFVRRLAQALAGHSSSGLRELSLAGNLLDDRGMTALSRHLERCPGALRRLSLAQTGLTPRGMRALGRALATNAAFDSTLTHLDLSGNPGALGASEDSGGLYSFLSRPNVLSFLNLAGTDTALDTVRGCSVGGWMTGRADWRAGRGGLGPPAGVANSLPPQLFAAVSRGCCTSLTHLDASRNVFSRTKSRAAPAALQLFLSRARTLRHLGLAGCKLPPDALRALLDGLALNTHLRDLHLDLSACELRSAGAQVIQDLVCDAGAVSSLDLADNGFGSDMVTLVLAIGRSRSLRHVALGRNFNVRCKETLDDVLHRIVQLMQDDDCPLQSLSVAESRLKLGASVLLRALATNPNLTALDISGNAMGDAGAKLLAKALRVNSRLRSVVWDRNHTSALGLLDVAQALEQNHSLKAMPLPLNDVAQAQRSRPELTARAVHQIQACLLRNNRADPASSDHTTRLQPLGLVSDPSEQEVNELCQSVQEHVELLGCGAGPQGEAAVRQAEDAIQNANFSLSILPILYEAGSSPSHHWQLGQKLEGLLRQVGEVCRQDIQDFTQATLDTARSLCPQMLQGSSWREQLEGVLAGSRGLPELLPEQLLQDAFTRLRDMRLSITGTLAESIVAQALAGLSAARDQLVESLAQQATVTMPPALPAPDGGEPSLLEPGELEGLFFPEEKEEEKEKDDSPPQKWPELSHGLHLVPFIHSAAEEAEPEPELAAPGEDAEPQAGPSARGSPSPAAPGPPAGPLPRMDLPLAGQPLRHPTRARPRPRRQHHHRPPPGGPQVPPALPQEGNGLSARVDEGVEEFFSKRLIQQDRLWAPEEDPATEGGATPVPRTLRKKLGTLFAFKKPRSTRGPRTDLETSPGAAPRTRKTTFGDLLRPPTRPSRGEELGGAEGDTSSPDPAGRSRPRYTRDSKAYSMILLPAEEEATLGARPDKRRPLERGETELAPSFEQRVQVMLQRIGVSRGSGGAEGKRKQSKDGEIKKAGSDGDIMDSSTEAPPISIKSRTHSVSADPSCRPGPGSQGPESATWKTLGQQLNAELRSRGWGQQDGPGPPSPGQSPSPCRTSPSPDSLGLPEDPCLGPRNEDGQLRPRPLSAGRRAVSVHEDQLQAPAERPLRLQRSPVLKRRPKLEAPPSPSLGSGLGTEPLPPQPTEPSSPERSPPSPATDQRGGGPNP

Target | dose-dependent thermal stabilisation call
RQCD1 (UniProt Q92600) | inactive: 0
RMND1 (UniProt Q9NWS8) | inactive: 0
ROCK2 (UniProt O75116) | inactive: 0
RPL7L1 (UniProt Q6DKI1) | inactive: 0
ROCK1 (UniProt Q13464) | inactive: 0
RNF114 (UniProt Q9Y508) | inactive: 0
RCC2 (UniProt Q9P258) | inactive: 0
S100A4 (UniProt P26447) | inactive: 0
RTCD1 (UniProt O00442) | active: 1
RBMX2 (UniProt Q9Y388) | inactive: 0
RRM2 (UniProt P31350) | inactive: 0
RPL36 (UniProt Q9Y3U8) | inactive: 0
RFC5 (UniProt P40937) | inactive: 0
RPL5 (UniProt P46777) | inactive: 0
RPL23A (UniProt P62750) | inactive: 0
S1PR4 (UniProt O95977) | inactive: 0
ROBLD3 (UniProt Q9Y2Q5) | inactive: 0
RNF185 (UniProt Q96GF1) | inactive: 0
RSBN1 (UniProt Q5VWQ0) | inactive: 0

11 entries from above in a different format.

| Target | dose-dependent thermal stabilisation call |
| --- | --- |
| RQCD1 (UniProt Q92600) | inactive: 0 |
| RMND1 (UniProt Q9NWS8) | inactive: 0 |
| ROCK2 (UniProt O75116) | inactive: 0 |
| ROCK1 (UniProt Q13464) | inactive: 0 |
| RNF114 (UniProt Q9Y508) | inactive: 0 |
| S100A4 (UniProt P26447) | inactive: 0 |
| RTCD1 (UniProt O00442) | active: 1 |
| RRM2 (UniProt P31350) | inactive: 0 |
| RPL36 (UniProt Q9Y3U8) | inactive: 0 |
| RFC5 (UniProt P40937) | inactive: 0 |
| RPL23A (UniProt P62750) | inactive: 0 |

More results follow.

Target | dose-dependent thermal stabilisation call
RIOK2 (UniProt Q9BVS4) | inactive: 0
RPL30 (UniProt P62888) | inactive: 0
RRP15 (UniProt Q9Y3B9) | inactive: 0
RCN2 (UniProt Q14257) | inactive: 0
RCBTB1 (UniProt Q8NDN9) | inactive: 0
RNASEH2C (UniProt Q8TDP1) | inactive: 0
RSAD1 (UniProt Q9HA92) | inactive: 0
RCOR3 (UniProt Q9P2K3) | inactive: 0
RPS6 (UniProt P62753) | inactive: 0
RP6-213H19 1 | inactive: 0
RPL10 (UniProt P27635) | inactive: 0
RPL4 (UniProt P36578) | inactive: 0
SAMD9 (UniProt Q5K651) | inactive: 0
SAMM50 (UniProt Q9Y512) | inactive: 0
RFXAP (UniProt O00287) | inactive: 0
RPL18 (UniProt Q07020) | inactive: 0
RNF20 (UniProt Q5VTR2) | inactive: 0
RTN3 (UniProt O95197) | inactive: 0
RLTPR (UniProt Q6F5E8) | inactive: 0

Source: the supplement of paper PMC7666118
